Assay results from PubChem BioAssay AID248 (DTP/NCI, 2004).
The list does not hold the whole screen: it is rich in T/C values a quarter to a half above the control, in often repeated tests (any T/C) and in doses without a T/C. Further doses and runs are listed elsewhere. T/C is the treated group as % of the vehicle group. Some entries give survivors of the animals treated and no T/C: the source holds a T/C of zero for them, seemingly a mark for toxic or unscored doses. Some doses without a T/C left all or most animals alive at the check, yet need not have been tolerated: survival well below the control is almost never listed, so the zero probably covers shortened survival too. Counts of survivors are from the toxicity check (mostly the fifth day) where no day follows; animals may have died later. Schedule codes are those of the source, taken here to give the interval after Q, in days (D) or hours (H), and the number of doses after X. Some doses were run more than once; the values are given in rising order. Some structures stand for samples that the source files as different forms (salt, stereo form or complex); doses refer to the form tested. Some schedules carry Z or #; the key to these is not given. Signs of the kind (2×) give the number of equal values in this list. For survival time, this PubChem deposit counts one and a half times the control or more as active, and values a quarter to a half above the control carry no call in these data; other NCI protocols may use other cut-offs. Some T/C values carry the count of animals alive at the toxicity check (mostly the fifth day); where none is given, no animal had died by that day.

Tested on: L1210 leukemia ip in BDF1 mice, survival T/C
Test: NCI In Vivo Anticancer Drug Screen. Data for tumor model L1210 Leukemia (intraperitoneal) in B6D2F1 (BDF1) mice
Conditions: T/C endpoint: mean survival time, higher T/C = longer survival
[1] = dose: 200.0 mg/kg/injection, schedule: Q01DX001 (ip), vehicle: saline
[2] = dose: 200.0 mg/kg/injection, schedule: Q04DX003 (ip), vehicle: saline
[3] = dose: 400.0 mg/kg/injection, schedule: Q01DX001 (ip), vehicle: saline
[4] = dose: 400.0 mg/kg/injection, schedule: Q01DX009 (ip), vehicle: Klucel (hydroxypropylcellulose) (HPC)
[5] = dose: 300.0 mg/kg/injection, schedule: Q01DX001 (ip), vehicle: saline
[6] = dose: 400.0 mg/kg/injection, schedule: Q04DX003 (ip), vehicle: Klucel (hydroxypropylcellulose) (HPC)

SMILES: CC[N+](CC)(CC)Cc1ccccc1
- survivor count (dose: 50.0 mg/kg/injection, schedule: Q01DX009 (ip), vehicle: Klucel (hydroxypropylcellulose) (HPC)): 3 of 6
- survivor count (dose: 100.0 mg/kg/injection, schedule: Q01DX001 (ip), vehicle: saline): 0 of 6, 1 of 6, 2 of 6 (2×)
- survivor count (dose: 100.0 mg/kg/injection, schedule: Q01DX009 (ip), vehicle: Klucel (hydroxypropylcellulose) (HPC)): 0 of 6
- survivor count (dose: 100.0 mg/kg/injection, schedule: Q04DX003 (ip), vehicle: saline): 0 of 6, 1 of 6, 5 of 6
- survivor count [1]: 0 of 6 (2×)
- survivor count (dose: 200.0 mg/kg/injection, schedule: Q01DX009 (ip), vehicle: Klucel (hydroxypropylcellulose) (HPC)): 0 of 6
- survivor count [2]: 0 of 6 (2×)
- survivor count [3]: 0 of 6 (2×)
- survivor count [4]: 0 of 6
- survivor count (dose: 400.0 mg/kg/injection, schedule: Q04DX003 (ip), vehicle: saline): 0 of 6 and 2 of 6

SMILES: Cc1ccc([P+](Cc2ccccc2)(c2ccc(C)cc2)c2ccc(C)cc2)cc1
- survivor count [5]: 1 of 6

SMILES: O=c1[nH]c2ccccc2c2ccc([N+](=O)[O-])cc12
- survivor count (dose: 50.0 mg/kg/injection, schedule: Q01DX001 (ip), vehicle: carboxymethylcellulose (CMC)): 4 of 4

SMILES: CN(C)C(=S)Sc1ccc([N+](=O)[O-])cc1[N+](=O)[O-]
- survivor count (dose: 100.0 mg/kg/injection, schedule: Q04DX003 (ip), vehicle: Klucel (hydroxypropylcellulose) (HPC)): 6 of 6
- survivor count (dose: 200.0 mg/kg/injection, schedule: Q04DX003 (ip), vehicle: Klucel (hydroxypropylcellulose) (HPC)): 6 of 6
- survivor count [4]: 6 of 6

SMILES: COC(OC(CO)C(O)S(=O)(=O)O)C(O)S(=O)(=O)O (stereo unspecified)
- T/C (dose: 35.0 mg/kg/injection, schedule: Q01DX009 (ip), vehicle: saline): 129 % of control
- T/C (dose: 50.0 mg/kg/injection, schedule: Q01DX009 (ip), vehicle: saline): 133 % of control
- T/C (dose: 70.0 mg/kg/injection, schedule: Q01DX009 (ip), vehicle: saline): 126 and 143 % of control
- T/C (dose: 100.0 mg/kg/injection, schedule: Q01DX009 (ip), vehicle: saline): 141 % of control
- T/C (dose: 100.0 mg/kg/injection, schedule: Q03HX016 (ip), vehicle: saline): 135 % of control
- T/C (dose: 100.0 mg/kg/injection, schedule: Q08DX002 (ip), vehicle: saline): 128 % of control
- T/C (dose: 140.0 mg/kg/injection, schedule: Q01DX009 (ip), vehicle: saline): 139 and 146 % of control
- T/C [1]: 140 % of control
- T/C [2]: 127 % of control
- T/C (dose: 200.0 mg/kg/injection, schedule: Q08DX002 (ip), vehicle: saline): 133 % of control
- T/C (dose: 280.0 mg/kg/injection, schedule: Q01DX001 (ip), vehicle: saline): 130 % of control
- T/C (dose: 280.0 mg/kg/injection, schedule: Q01DX009 (ip), vehicle: saline): 143 % of control [4 of 6 alive]
- survivor count (dose: 400.0 mg/kg/injection, schedule: Q01DX009 (ip), vehicle: saline): 7 of 8
- survivor count (dose: 400.0 mg/kg/injection, schedule: Q01DX009 (sc), vehicle: saline): 4 of 8
- T/C (dose: 400.0 mg/kg/injection, schedule: Q08DX002 (ip), vehicle: saline): 140 % of control
- T/C (dose: 560.0 mg/kg/injection, schedule: Q01DX001 (ip), vehicle: saline): 125 and 133 % of control [4 of 6 alive]
- survivor count (dose: 560.0 mg/kg/injection, schedule: Q01DX009 (ip), vehicle: saline): 0 of 6 and 1 of 6
- survivor count (dose: 800.0 mg/kg/injection, schedule: Q01DX001 (ip), vehicle: saline): 3 of 8
- survivor count (dose: 800.0 mg/kg/injection, schedule: Q04DX003 (ip), vehicle: saline): 1 of 8
- survivor count (dose: 800.0 mg/kg/injection, schedule: Q08DX002 (ip), vehicle: saline): 2 of 8

SMILES: O=C(/C=C\c1ccc(/C=C/C(=O)Nc2cccc(C3=NCCN3)c2)cc1)Nc1cccc(C2=NCCN2)c1
- T/C (dose: 15.0 mg/kg/injection, schedule: Q01DX Z (ip), vehicle: saline): 133 % of control
- survivor count (dose: 480.0 mg/kg/injection, schedule: Q01DX Z (ip), vehicle: saline): 3 of 6

SMILES: CCCCN1C(=O)c2c(Cl)c(Cl)c(Cl)c(Cl)c2C1=O
- survivor count (dose: 100.0 mg/kg/injection, schedule: Q04DX002 (ip), vehicle: other): 3 of 3

SMILES: CCOC(=O)C(=N\Nc1ccccc1OC)/C(C)=N\NC(N)=S
- survivor count (dose: 75.0 mg/kg/injection, schedule: Q01DX001 (ip), vehicle: saline): 6 of 6
- survivor count (dose: 300.0 mg/kg/injection, schedule: Q01DX001 (ip), vehicle: acetone): 0 of 6
- survivor count [5]: 0 of 6

SMILES: O/N=c1\ncn(O)c2nc[nH]c12
- T/C (dose: 130.0 mg/kg/injection, schedule: Q01DX009 (ip), vehicle: saline): 138 % of control
- T/C (dose: 200.0 mg/kg/injection, schedule: Q01DX009 (ip), vehicle: saline): 143 % of control [5 of 6 alive]

SMILES: N#Cc1cnc(N)cc1N
- survivor count [6]: 3 of 6

SMILES: O=C1c2ccccc2C(=O)c2c(Nc3ccccc3)ccc(O)c21
- survivor count [6]: 6 of 6

SMILES: CCc1ccc(N2C(N)=NC(N)=NC2(C)C)cc1
- survivor count [1]: 1 of 6
- survivor count [3]: 1 of 6

SMILES: O=C(CN1CCCCC1)Nc1ccc(S(=O)(=O)c2ccc([N+](=O)[O-])cc2)cc1
- survivor count (dose: 150.0 mg/kg/injection, schedule: Q01DX001 (ip), vehicle: saline): 1 of 6
- survivor count [5]: 1 of 6

SMILES: Cc1c(CNc2ccc(C(=O)NC(CC(=O)O)CC(=O)O)cc2)ccc2nc(N)nc(N)c12
- T/C (dose: 0.3 mg/kg/injection, schedule: Q01DX009 (ip), vehicle: saline): 134 % of control
- T/C (dose: 0.4 mg/kg/injection, schedule: Q01DX009 (ip), vehicle: saline): 130 % of control
- T/C (dose: 2.5 mg/kg/injection, schedule: Q01DX001 (ip), vehicle: other): 132 % of control
- T/C (dose: 2.5 mg/kg/injection, schedule: Q01DX001 (ip), vehicle: saline): 126 % of control
- survivor count (dose: 2.5 mg/kg/injection, schedule: Q01DX009 (ip), vehicle: saline): 4 of 6 and 6 of 6
- T/C (dose: 5.0 mg/kg/injection, schedule: Q01DX001 (ip), vehicle: other): 143 % of control
- T/C (dose: 5.0 mg/kg/injection, schedule: Q01DX001 (ip), vehicle: saline): 140 % of control
- survivor count (dose: 5.0 mg/kg/injection, schedule: Q01DX009 (ip), vehicle: saline): 5 of 6 and 6 of 6
- T/C (dose: 5.0 mg/kg/injection, schedule: Q04DX003 (ip), vehicle: saline): 134 % of control
- survivor count (dose: 6.7 mg/kg/injection, schedule: Q01DX009 (ip), vehicle: other): 6 of 6
- T/C (dose: 9.5 mg/kg/injection, schedule: Q01DX001 (ip), vehicle: other): 144 % of control
- survivor count (dose: 10.0 mg/kg/injection, schedule: Q01DX009 (ip), vehicle: other): 5 of 6
- survivor count (dose: 15.0 mg/kg/injection, schedule: Q01DX009 (ip), vehicle: other): 6 of 6
- T/C (dose: 19.0 mg/kg/injection, schedule: Q01DX001 (ip), vehicle: other): 146 % of control [4 of 6 alive]
- survivor count (dose: 20.0 mg/kg/injection, schedule: Q04DX003 (ip), vehicle: saline): 6 of 6
- survivor count (dose: 38.0 mg/kg/injection, schedule: Q01DX001 (ip), vehicle: other): 3 of 6
- T/C (dose: 40.0 mg/kg/injection, schedule: Q01DX001 (ip), vehicle: saline): 145 % of control
- survivor count (dose: 40.0 mg/kg/injection, schedule: Q04DX003 (ip), vehicle: saline): 5 of 6
- survivor count (dose: 75.0 mg/kg/injection, schedule: Q01DX001 (ip), vehicle: other): 5 of 6
- survivor count (dose: 150.0 mg/kg/injection, schedule: Q01DX001 (ip), vehicle: other): 3 of 6
- survivor count (dose: 300.0 mg/kg/injection, schedule: Q01DX001 (ip), vehicle: other): 3 of 6

SMILES: CCC(=O)OC1(c2ccccc2)CCN(CCC(O)c2ccccc2)CC1C (stereo unspecified)
- survivor count (dose: 80.0 mg/kg/injection, schedule: Q04DX003 (ip), vehicle: Klucel (hydroxypropylcellulose) (HPC)): 3 of 6
